Data: PMC4070648
Results are given in words; binding and its absence hold for the method and conditions named. In cells and extracts the contact can be indirect. Some entries that bind do so weakly or less than the wild type.

Chains of the proteins cited; added tags and fusions are not shown.
UniProt Q460N5: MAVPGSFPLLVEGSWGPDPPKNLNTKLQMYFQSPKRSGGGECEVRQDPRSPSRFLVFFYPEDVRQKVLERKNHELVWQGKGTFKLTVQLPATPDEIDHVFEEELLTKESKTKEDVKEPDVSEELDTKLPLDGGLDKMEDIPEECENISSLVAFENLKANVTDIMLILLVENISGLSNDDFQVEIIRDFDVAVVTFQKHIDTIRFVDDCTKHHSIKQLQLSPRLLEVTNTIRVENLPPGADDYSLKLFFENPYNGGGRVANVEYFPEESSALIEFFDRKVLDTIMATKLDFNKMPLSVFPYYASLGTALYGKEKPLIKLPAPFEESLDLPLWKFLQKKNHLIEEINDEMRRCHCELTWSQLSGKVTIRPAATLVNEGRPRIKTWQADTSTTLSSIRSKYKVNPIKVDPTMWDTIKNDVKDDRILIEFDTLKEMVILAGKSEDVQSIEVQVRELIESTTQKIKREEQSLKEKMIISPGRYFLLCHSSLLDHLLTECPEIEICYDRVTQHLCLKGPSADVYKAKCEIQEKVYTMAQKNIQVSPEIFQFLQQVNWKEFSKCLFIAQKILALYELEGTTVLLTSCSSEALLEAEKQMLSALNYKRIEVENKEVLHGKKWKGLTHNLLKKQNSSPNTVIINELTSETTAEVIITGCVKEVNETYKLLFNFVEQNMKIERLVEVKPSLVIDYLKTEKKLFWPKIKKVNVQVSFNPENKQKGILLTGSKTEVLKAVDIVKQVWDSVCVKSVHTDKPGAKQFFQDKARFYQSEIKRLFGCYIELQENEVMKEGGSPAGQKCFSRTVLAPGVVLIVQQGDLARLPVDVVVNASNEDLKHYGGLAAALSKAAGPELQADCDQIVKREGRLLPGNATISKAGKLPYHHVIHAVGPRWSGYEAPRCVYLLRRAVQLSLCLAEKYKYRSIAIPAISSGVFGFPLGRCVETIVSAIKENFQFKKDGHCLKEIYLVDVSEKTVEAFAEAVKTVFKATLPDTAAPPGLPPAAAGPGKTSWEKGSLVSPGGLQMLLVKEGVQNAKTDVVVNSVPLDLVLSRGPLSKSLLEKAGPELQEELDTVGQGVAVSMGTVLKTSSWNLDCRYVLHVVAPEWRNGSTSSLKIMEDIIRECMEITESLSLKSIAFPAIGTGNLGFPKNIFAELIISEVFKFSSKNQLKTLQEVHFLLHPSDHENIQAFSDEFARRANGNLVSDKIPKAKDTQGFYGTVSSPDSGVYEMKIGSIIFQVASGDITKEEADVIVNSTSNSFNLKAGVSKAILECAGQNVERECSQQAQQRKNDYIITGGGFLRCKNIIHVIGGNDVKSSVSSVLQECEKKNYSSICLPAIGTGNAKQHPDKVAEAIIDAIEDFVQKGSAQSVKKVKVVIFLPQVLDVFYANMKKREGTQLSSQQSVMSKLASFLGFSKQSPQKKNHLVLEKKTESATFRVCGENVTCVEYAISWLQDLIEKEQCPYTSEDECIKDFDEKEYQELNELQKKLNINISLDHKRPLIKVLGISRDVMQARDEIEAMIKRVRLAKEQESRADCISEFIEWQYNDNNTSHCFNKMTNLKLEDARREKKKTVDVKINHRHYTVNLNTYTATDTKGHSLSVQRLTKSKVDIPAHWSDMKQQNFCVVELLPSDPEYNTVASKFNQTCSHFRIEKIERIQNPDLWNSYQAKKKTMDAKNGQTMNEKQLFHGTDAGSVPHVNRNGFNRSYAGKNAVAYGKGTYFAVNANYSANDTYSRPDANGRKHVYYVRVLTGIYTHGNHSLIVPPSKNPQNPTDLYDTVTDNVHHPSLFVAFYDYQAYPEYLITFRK

Tests used:
[1] = biological target: mono-ADP-ribosyltransferase ARTD8 (human (endogenous in PC3)) (UniProt Q460N5); experiment: co-IP; endogenous ARTD8 complexes precipitated from PC3 cell extracts with epitope affinity purified anti-ARTD8 antibodies; no ADP-ribose added; immunoblot
[2] = biological target: diphtheria-toxin-like macrodomain containing ADP-ribosyltransferase-9 (ARTD9) (human (endogenous in PC3)) (UniProt Q8IXQ6); experiment: co-IP; endogenous ARTD9 complexes precipitated from PC3 cell extracts with anti-ARTD9 antibody covalently coupled to tosyl-activated Dynabeads; cells stimulated 1 h with IFNγ (200 U/ml) in Figure 2H and S5E; no ADP-ribose added; immunoblot

B1: ARTD10 (protein, UniProt Q53GL7 1-1025)
chain: MVAMAEAEAGVAVEVRGLPPAVPDELLTLYFENRRRSGGGPVLSWQRLGCGGVLTFREPADAERVLAQADHELHGAQLSLRPAPPRAPARLLLQGLPPGTTPQRLEQHVQALLRASGLPVQPCCALASPRPDRALVQLPKPLSEADVRVLEEQAQNLGLEGTLVSLARVPQARAVRVVGDGASVDLLLLELYLENERRSGGGPLEDLQRLPGPLGTVASFQQWQVAERVLQQEHRLQGSELSLVPHYDILEPEELAENTSGGDHPSTQGPRATKHALLRTGGLVTALQGAGTVTMGSGEEPGQSGASLRTGPMVQGRGIMTTGSGQEPGQSGTSLRTGPMGSLGQAEQVSSMPMGSLEHEGLVSLRPVGLQEQEGPMSLGPVGSAGPVETSKGLLGQEGLVEIAMDSPEQEGLVGPMEITMGSLEKAGPVSPGCVKLAGQEGLVEMVLLMEPGAMRFLQLYHEDLLAGLGDVALLPLEGPDMTGFRLCGAQASCQAAEEFLRSLLGSISCHVLCLEHPGSARFLLGPEGQHLLQGLEAQFQCVFGTERLATATLDTGLEEVDPTEALPVLPGNAHTLWTPDSTGGDQEDVSLEEVRELLATLEGLDLDGEDWLPRELEEEGPQEQPEEEVTPGHEEEEPVAPSTVAPRWLEEEAALQLALHRSLEPQGQVAEQEEAAALRQALTLSLLEQPPLEAEEPPDGGTDGKAQLVVHSAFEQDVEELDRALRAALEVHVQEETVGPWRRTLPAELRARLERCHGVSVALRGDCTILRGFGAHPARAARHLVALLAGPWDQSLAFPLAASGPTLAGQTLKGPWNNLERLAENTGEFQEVVRAFYDTLDAARSSIRVVRVERVSHPLLQQQYELYRERLLQRCERRPVEQVLYHGTTAPAVPDICAHGFNRSFCGRNATVYGKGVYFARRASLSVQDRYSPPNADGHKAVFVARVLTGDYGQGRRGLRAPPLRGPGHVLLRYDSAVDCICQPSIFVIFHDTQALPTHLITCEHVPRASPDDPSGLPGRSPDT
B1 was tested, and the binding [1] was “binds” and the binding [2] was “binds”.
